Values from PubChem BioAssay AID1508588 (Peter MacCallum Cancer Centre, 2020).

- Test: 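Knock-downs boosting vemurafenib effects on melanoma cell growth or lactate release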 (primary screen)
- Cell system: human WM266.4 melanoma cells (BRAF V600 mutant)
- Knock-down reagent: siRNA pool against human genes, 40 nM
- Time to read-out: 96 h from transfection to read-out
- Conditions: vemurafenib 300 nM (about IC25), added 48 h after transfection, for 48 h; comparison arm got DMSO vehicle only
- Measurement: 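Ratios to non-targeting siRNA for cell gain, counted as DAPI nuclei after minus before drug and averaged over two replicates, and for absorbance-read medium lactate per cell; both binned into fold-change classes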
- Direction: cell gain with vemurafenib: higher = more cell gain than with non-targeting siRNA; lactate per cell with vemurafenib: higher = more lactate made per cell
- Active means: 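a knock-down counts as enhancing when its fold-change classes with vehicle and with vemurafenib, taken together, show a stronger drug effect on cell gain or lactate per cell; exact class pairs not stated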
- Calls: active = enhances vemurafenib effect; inactive = no enhancement seen
Here is a random part of about 18,000 reagents tested. In the full data, 790 (4.4%) were called active. 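Calls rest on a combination of fold-change classes in drug and vehicle arms, not all shown here.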 The numbers tell different reagents against one gene apart. A reagent listed more than once was tested more than once; the source does not tell the runs apart.

| Target gene | pool no. | cell gain with vemurafenib | lactate per cell with vemurafenib | outcome |
| --- | --- | --- | --- | --- |
| IQGAP2 (IQ motif containing GTPase activating protein 2) | 1 | 0.15 | 1.35 | active |
| DNAJB11 (DnaJ heat shock protein family (Hsp40) member B11) | 1 | 0.28 | 0.94 | inactive |
| GABRR3 (gamma-aminobutyric acid type A receptor subunit rho3) | 1 | 0.33 | 1.43 | inactive |
| PRR36 (proline rich 36) | 1 | 0.76 | 1.06 | inactive |
| ATPAF2 (ATP synthase mitochondrial F1 complex assembly factor 2) | 1 | 0.77 | 1.33 | inactive |
| PLPP3 (phospholipid phosphatase 3) | 1 | 0.74 | 1.03 | inactive |
| SLC16A12 | 1 | 0.99 | 0.75 | inactive |
| TEKTL1 (tektin like 1) | 1 | 0.65 | 1.29 | inactive |
| KLK12 (kallikrein related peptidase 12) | 1 | 0.6 | 0.62 | inactive |
| OR2J2 (olfactory receptor family 2 subfamily J member 2) | 1 | 0.03 | 0.41 | inactive |
| OR7C1 (olfactory receptor family 7 subfamily C member 1) | 1 | 1.01 | 0.66 | inactive |
| COPS5 (COP9 signalosome subunit 5) | 1 | 0.7 | 1.14 | inactive |
| UNC5D (unc-5 netrin receptor D) | 1 | 1.06 | 0.4 | inactive |
| ALPK1 (alpha kinase 1) | 1 | 0.07 | 1.16 | inactive |
| METTL23 (methyltransferase 23, arginine) | 1 | 0.79 | 0.58 | inactive |
| F9 (coagulation factor IX) | 1 | 0.26 | 0.84 | inactive |
| CDC34 (cell division cycle 34, ubiquitin conjugating enzyme) | 1 | 0.38 | 0.62 | inactive |
| RWDD2B (RWD domain containing 2B) | 1 | 1.05 | 0.72 | inactive |
| HSD17B8 (hydroxysteroid 17-beta dehydrogenase 8) | 1 | 0.69 | 0.69 | inactive |
| RAB33B (RAB33B, member RAS oncogene family) | 1 | 0.8 | 1.08 | inactive |
| PCLAF (PCNA clamp associated factor) | 1 | 0.76 | 0.46 | inactive |
| VGLL1 (vestigial like family member 1) | 1 | 0.63 | 1.08 | inactive |
| AGO1 (argonaute RISC component 1) | 1 | 0.15 | 1.84 | inactive |
| AHRR (aryl hydrocarbon receptor repressor) | 1 | 0.78 | 0.72 | inactive |
| RIOX2 (ribosomal oxygenase 2) | 1 | 0.9 | 1.4 | inactive |
| WNK1 (WNK lysine deficient protein kinase 1) | 1 | -0.07 | 0.34 | active |
| WNK1 (WNK lysine deficient protein kinase 1) | 2 | 0.59 | 1.31 | inactive |
| IDUA (alpha-L-iduronidase) | 1 | 0.75 | 0.71 | inactive |
| ZFC3H1 (zinc finger C3H1-type containing) | 1 | 0.08 | 1.04 | inactive |
| TTLL2 (tubulin tyrosine ligase like 2) | 1 | 0.46 | 0.86 | inactive |

The list goes on, starting with the last 8 of the part before.
| Target gene | pool no. | cell gain with vemurafenib | lactate per cell with vemurafenib | outcome |
| --- | --- | --- | --- | --- |
| AGO1 (argonaute RISC component 1) | 1 | 0.15 | 1.84 | inactive |
| AHRR (aryl hydrocarbon receptor repressor) | 1 | 0.78 | 0.72 | inactive |
| RIOX2 (ribosomal oxygenase 2) | 1 | 0.9 | 1.4 | inactive |
| WNK1 (WNK lysine deficient protein kinase 1) | 1 | -0.07 | 0.34 | active |
| WNK1 (WNK lysine deficient protein kinase 1) | 2 | 0.59 | 1.31 | inactive |
| IDUA (alpha-L-iduronidase) | 1 | 0.75 | 0.71 | inactive |
| ZFC3H1 (zinc finger C3H1-type containing) | 1 | 0.08 | 1.04 | inactive |
| TTLL2 (tubulin tyrosine ligase like 2) | 1 | 0.46 | 0.86 | inactive |
| LRRN4 (leucine rich repeat neuronal 4) | 1 | 0.9 | 0.34 | active |
| RASEF (RAS and EF-hand domain containing) | 1 | 0.73 | 0.64 | inactive |
| XPC | 1 | 0.62 | 1.14 | inactive |
| JRK (Jrk helix-turn-helix protein) | 1 | 0.28 | 0.37 | active |
| PLAC8 (placenta associated 8) | 1 | 0.48 | 0.46 | inactive |
| WEE1 (WEE1 G2 checkpoint kinase) | 1 | 0.36 | 1.36 | inactive |
| COX8A (cytochrome c oxidase subunit 8A) | 1 | 0.76 | 0.84 | inactive |
| STAG2 (STAG2 cohesin complex component) | 1 | 0.75 | 0.84 | inactive |
| ZNF682 (zinc finger protein 682) | 1 | 0.92 | 0.73 | inactive |
| SLC25A21 | 1 | 0.55 | 0.32 | active |
| OTC (ornithine transcarbamylase) | 1 | 0.93 | 0.58 | inactive |
| FST (follistatin) | 1 | 0.38 | 0.92 | inactive |
| NOX5 (NADPH oxidase 5) | 1 | 0.79 | 0.78 | inactive |
| NOX5 (NADPH oxidase 5) | 1 | 0.87 | 1.07 | inactive |
| FKBP4 (FKBP prolyl isomerase 4) | 1 | 1.08 | 0.66 | inactive |
| PHLPP1 (PH domain and leucine rich repeat protein phosphatase 1) | 1 | 0.85 | 0.57 | inactive |
| FATE1 (fetal and adult testis expressed 1) | 1 | 0.3 | 0.48 | active |
| GOPC (golgi associated PDZ and coiled-coil motif containing) | 1 | 0.9 | 1.19 | inactive |
| TTK (TTK protein kinase) | 1 | -0.1 | 5.14 | inactive |
| TRAPPC10 (trafficking protein particle complex subunit 10) | 1 | 1.17 | 0.64 | inactive |
| UNC13D (unc-13 homolog D) | 1 | 0.82 | 0.68 | inactive |
| CDCA3 (cell division cycle associated 3) | 1 | 0.73 | 1.5 | inactive |
| DPY19L4 (dpy-19 like 4) | 1 | 0.61 | 1.62 | inactive |
| TMEM248 (transmembrane protein 248) | 1 | 0.67 | 0.86 | inactive |
| TTC27 (tetratricopeptide repeat domain 27) | 1 | 0.6 | 0.55 | inactive |
| CREB1 (cAMP responsive element binding protein 1) | 1 | 0.31 | 0.91 | inactive |
| RAB36 (RAB36, member RAS oncogene family) | 1 | 0.31 | 1.34 | inactive |
| ZNF114 (zinc finger protein 114) | 1 | 0.66 | 0.6 | inactive |
| EDN2 (endothelin 2) | 1 | 0.36 | 0.42 | inactive |
| LIPJ (lipase family member J) | 1 | 1.15 | 0.38 | inactive |
| SPRR2A (small proline rich protein 2A) | 1 | 1.04 | 0.22 | inactive |
| RFC5 (replication factor C subunit 5) | 1 | 0.67 | 0.9 | inactive |
| ZNF646 (zinc finger protein 646) | 1 | 0.28 | 2.34 | inactive |
| DUOX1 (dual oxidase 1) | 1 | 0.42 | 1.12 | inactive |
| TRNT1 (tRNA nucleotidyl transferase 1) | 1 | 0.19 | 3.03 | inactive |
| CELF2 (CUGBP Elav-like family member 2) | 1 | 0.61 | 1.6 | inactive |
| RND2 (Rho family GTPase 2) | 1 | 0.31 | 1.17 | inactive |
| TBC1D7 (TBC1 domain family member 7) | 1 | 0.43 | 0.89 | inactive |
| PPP2R5D (protein phosphatase 2 regulatory subunit B'delta) | 1 | 0.54 | 1.13 | inactive |
| MRGPRG (MAS related GPR family member G) | 1 | 0.52 | 1.34 | inactive |
| FXYD2 (FXYD domain containing ion transport regulator 2) | 1 | 0.21 | 1.12 | inactive |
| OR2M3 (olfactory receptor family 2 subfamily M member 3) | 1 | 0.03 | 0.72 | inactive |
| TMEM109 (transmembrane protein 109) | 1 | 0.25 | 1.18 | inactive |
| E2F8 (E2F transcription factor 8) | 1 | 0.97 | 0.84 | inactive |
| PIN4 (peptidylprolyl cis/trans isomerase, NIMA-interacting 4) | 1 | 0.48 | 1.27 | inactive |
| EXOC3L1 (exocyst complex component 3 like 1) | 1 | 0.6 | 1.23 | inactive |
| GABARAPL1 (GABA type A receptor associated protein like 1) | 1 | 0.61 | 1.09 | inactive |
| SC5D (sterol-C5-desaturase) | 1 | 0.93 | 0.83 | inactive |
| ITFG2 (integrin alpha FG-GAP repeat containing 2) | 1 | 0.66 | 0.89 | inactive |
| ZXDA (zinc finger X-linked duplicated A) | 1 | 0.69 | 0.84 | inactive |
| C5orf15 (chromosome 5 open reading frame 15) | 1 | 0.11 | 0.54 | active |
| TM4SF19 (transmembrane 4 L six family member 19) | 1 | 0.12 | 1.72 | inactive |
| TMEM190 (transmembrane protein 190) | 1 | 0.4 | 0.66 | inactive |
| OTOG (otogelin) | 1 | 0.14 | 1.29 | inactive |
